Laboratory results published in the supplement of paper PMC3334620.
Over roughly 33,000 sequences, “E-score (-0.5 to 0.5)” has its median near -0.016; the highest 2% begin near 0.3. The list shows a part of the results.

biological target: T1, Yer184c (UniProt P39961); assay: PBM E-score (8-mer binding enrichment) (E-score (-0.5 to 0.5)); higher = stronger / more preferred TF binding; conditions: protein concentration: 100 nM; construct: GST-full length
T1 sequence: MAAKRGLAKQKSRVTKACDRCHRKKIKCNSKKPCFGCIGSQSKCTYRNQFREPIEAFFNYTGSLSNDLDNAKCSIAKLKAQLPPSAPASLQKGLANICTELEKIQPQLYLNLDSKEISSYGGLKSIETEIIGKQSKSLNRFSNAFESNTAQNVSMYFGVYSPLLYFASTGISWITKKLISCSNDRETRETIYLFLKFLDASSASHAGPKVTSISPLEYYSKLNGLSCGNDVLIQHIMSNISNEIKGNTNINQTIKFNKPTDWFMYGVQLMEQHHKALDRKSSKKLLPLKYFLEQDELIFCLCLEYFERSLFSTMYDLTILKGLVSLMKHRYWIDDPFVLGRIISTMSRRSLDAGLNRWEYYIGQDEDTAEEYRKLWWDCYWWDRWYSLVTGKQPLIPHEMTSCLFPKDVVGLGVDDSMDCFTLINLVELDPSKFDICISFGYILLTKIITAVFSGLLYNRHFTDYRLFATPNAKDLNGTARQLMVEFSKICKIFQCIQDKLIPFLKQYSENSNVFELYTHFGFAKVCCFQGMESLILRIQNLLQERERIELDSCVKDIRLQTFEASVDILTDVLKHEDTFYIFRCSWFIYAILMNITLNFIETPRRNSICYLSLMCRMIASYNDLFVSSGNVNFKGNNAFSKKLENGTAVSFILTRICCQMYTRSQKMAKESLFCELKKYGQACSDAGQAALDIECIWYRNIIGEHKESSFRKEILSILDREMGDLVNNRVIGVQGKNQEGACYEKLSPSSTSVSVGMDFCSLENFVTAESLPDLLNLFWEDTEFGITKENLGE
Outline: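 Universal all-10-mer Agilent arrays, fresh or stripped once, were converted to double-stranded form by primer extension. GST-tagged yeast transcription factors from PURExpress in vitro transcription/translation, full-length or DNA-binding domain only, were applied at about 100-200 nM and detected with fluorescent anti-GST. After masliner normalisation, the Universal PBM Analysis Suite scored each ungapped eight-base word together with its reverse complement by E-score.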

| Sequence | PBM E-score |
| --- | --- |
| AGCCAGAG | 0.00372 |
| ACGCCGGG | 0.21 |
| AGATCATG | -0.112 |
| ACCCAGCT | -0.234 |
| CCTGTCTC | -0.124 |
| AAGTGCAC | -0.0762 |
| AATAATAC | 0.232 |
| GCGACTTA | -0.115 |
| ACACGCTA | -0.0608 |
| AGTCATGA | 0.0426 |
| CGATAAAG | -0.00214 |
| CTCCGTAC | -0.045 |
| GTGAGTAA | 0.0124 |
| ATTAAATC | 0.231 |
| ATTGATTA | 0.221 |
| GTATAATA | 0.251 |
| GTCCTAAA | 0.109 |
| ACCGGGGG | -0.0716 |
| ACGTCGCC | -0.194 |
| TACAGGCA | -0.0164 |
| GTGTACAC | -0.0204 |
| CGTGTTAC | -0.0082 |
| AGGGCATA | -0.0471 |
| CCGCGCTA | 0.18 |
| ATCCTCTG | -0.181 |

3 records drawn at random from the list so far, as already listed:

| Sequence | PBM E-score |
| --- | --- |
| CCTGTCTC | -0.124 |
| ACCGGGGG | -0.0716 |
| ATTAAATC | 0.231 |

Additional entries

| Sequence | PBM E-score |
| --- | --- |
| AATTGCAT | 0.0867 |
| CTAGATAA | 0.0124 |
| CGAAGTAA | 0.13 |
| GCGATACA | 0.0282 |
| ATGGCCCC | -0.162 |
| ATATCAAT | 0.174 |
| ACATCTGA | -0.135 |
| ACGTGTAT | -0.15 |
| AACACTAG | -0.0603 |
| ATACGGCA | 0.235 |
| ATACTAGA | 0.223 |
| CGCGGGTA | 0.0447 |
| AACGACTG | -0.189 |
| TTCCAAAA | 0.107 |
| AGCTGCAT | -0.16 |
| CACCTACG | -0.194 |
| AAATTTCC | 0.261 |
| AGTAGGAT | -0.0173 |
| ATGAGTTA | -0.0323 |
| CAGTGGCA | -0.104 |
| CAGAATTA | 0.126 |
| AGGGATGA | -0.133 |
| ACAAATGT | 0.101 |
| CAGCAAGG | -0.203 |
| GAGGAAGA | 0.00205 |

| Sequence | PBM E-score |
| --- | --- |
| GTTCCATA | -0.0744 |
| ATTCACTA | 0.133 |
| TATATCGA | 0.161 |
| GAGCGGAC | -0.168 |
| CTCGCGTA | -0.07 |
| GATGTGGC | -0.206 |
| GTGTACCA | -0.183 |
| CCAGGACC | -0.141 |
| CGAAAGCA | 0.194 |
| GACTTCTC | -0.0341 |
| CATTGTCA | 0.137 |
| ATAGGGTC | -0.253 |
| AGGTAGAC | -0.0667 |
| CCAACCCC | -0.149 |
| ACCATTAC | 0.0181 |
| CAACGTGG | -0.0647 |
| TGCACCCA | -0.0602 |
| CGAGGCCC | -0.108 |
| GGACAACC | 0.0118 |
| CCAACGTA | -0.105 |
| ATCCATGC | 0.0158 |
| CCCTGAGA | -0.304 |
| ACTGTGCC | 0.0218 |
| GGTTTAGA | 0.0607 |
| AAGATCCG | 0.091 |

| Sequence | PBM E-score |
| --- | --- |
| CTAACGAC | -0.196 |
| CGTAAGAC | -0.152 |
| TAGTATAA | 0.226 |
| GCGTCCCA | -0.117 |
| AAAGCCCT | -0.236 |
| ATCTGGGG | -0.344 |
| TGAAACAA | 0.157 |
| TACGCAGA | 0.0761 |
| AACCTCCG | 0.129 |
| ATCACCTC | -0.0189 |
| GTAGGGGA | -0.212 |
| GAATAAAC | 0.0606 |
| ATGCCAAT | -0.0596 |
| AGCGTCCC | -0.144 |
| ACGCGACT | -0.246 |
| GCGTGGTA | 0.0701 |
| ACGAGGAA | 0.0257 |
| ACTCCTGC | -0.00504 |
| AAGCAGAG | -0.0501 |
| ATCTCGGG | 0.219 |
| GCAGACCA | -0.0675 |
| ACGCGACA | -0.0168 |
| GCACTTTA | 0.046 |
| CATCTTAG | 0.011 |
| GTTTACCA | 0.0331 |

| Sequence | PBM E-score |
| --- | --- |
| ATCGATAG | -0.0102 |
| ATGCGACC | 0.142 |
| CGACTACC | -0.248 |
| GCATCCAA | -0.165 |
| CTTGTTAC | 0.0352 |
| ATGGTTAA | 0.0016 |
| AAGGCCTT | -0.281 |
| CCGTCGCA | -0.00654 |
| CAATACGG | -0.104 |
| CATTCGGG | 0.141 |
| AGCAAGTG | -0.246 |
| GCGCGTCA | -0.138 |
| CCGTCTCA | 0.0903 |
| ACTAGCTC | -0.00649 |
| CATGAAGG | -0.0242 |
| AATTTATA | 0.24 |
| ATTGGAGG | -0.178 |
| CAGTGCGA | -0.2 |
| CCGAAGCC | 0.143 |
| AGCTGATG | 0.0448 |
| CCGGACTC | 0.341 |
| CAGTACAG | 0.017 |
| AATCCCCT | -0.283 |
| AATTAGTC | 0.145 |
| GCCCAACA | -0.205 |

| Sequence | PBM E-score |
| --- | --- |
| CAGGCTTC | 0.0429 |
| ATCCTAGA | -0.0128 |
| AGGGTACG | -0.107 |
| ACAGTAGA | 0.0645 |
| CAGTAGGG | -0.381 |
| ATAGTCGG | -0.039 |
| GGCGCGGA | 0.109 |
| ACGTCCCC | -0.26 |
| AGTGTGAC | -0.238 |
| CGGCTCAC | 0.183 |
| CCGGGGAA | 0.267 |
| CGCGAGCC | -0.032 |
| AATGGAAA | -0.00326 |
| GCAGAGAA | 0.136 |
| GCCGGTCC | 0.148 |
| GATTATAA | 0.204 |
| ACTGGTCA | -0.0508 |
| ATTGAGAG | 0.122 |
| AGCGGTAC | -0.192 |
| AAAGGATA | 0.195 |
| AAGGGCAT | -0.236 |
| AGTCCGAT | 0.19 |
| AATCACAA | -0.0485 |
| GTCTCAAC | -0.0423 |
| GTGATGTA | 0.0285 |

| Sequence | PBM E-score |
| --- | --- |
| GGGAGACC | -0.229 |
| AACCCGCC | -0.0413 |
| CTCACGCC | -0.0549 |
| GTACAGAA | 0.21 |
| CACACTGA | -0.244 |
| ATATAGGG | -0.141 |
| GTCGCCCA | -0.197 |
| CTACTACC | -0.031 |
| TGCCTTAA | -0.129 |
| ACACGTAA | 0.0614 |
| GGTTAAAA | 0.0951 |
| TTCTCCAA | 0.0459 |
| GCAAGGCC | 0.0339 |
| CGCTAACG | 0.21 |
| CCTAAACA | -0.0297 |
| ATATCCAA | 0.132 |
| CCGAGCGC | 0.361 |
| AATTGTTC | 0.269 |
| TAGTCTAA | -0.101 |
| CGTGGGTA | -0.0914 |
| CTTGTCAC | -0.0615 |
| CTGAGTCC | -0.0833 |

Four successive entries already listed, quoted:

| Sequence | PBM E-score |
| --- | --- |
| CTCACGCC | -0.0549 |
| GTACAGAA | 0.21 |
| CACACTGA | -0.244 |
| ATATAGGG | -0.141 |
